Results are given in words; binding and its absence hold for the method and conditions named. Binding seen in cells or lysates may run through a third protein. Some binding calls cover weakened binding; strength is not graded here.
Biological target: T1, P-JMJD1A (pS265-JMJD1A), endogenous in NIH-3T3 cells (mouse (endogenous in NIH-3T3)) (UniProt Q6PCM1)
T1 sequence (chain, phosphoserine at S265 (P-JMJD1A immunoblotting)): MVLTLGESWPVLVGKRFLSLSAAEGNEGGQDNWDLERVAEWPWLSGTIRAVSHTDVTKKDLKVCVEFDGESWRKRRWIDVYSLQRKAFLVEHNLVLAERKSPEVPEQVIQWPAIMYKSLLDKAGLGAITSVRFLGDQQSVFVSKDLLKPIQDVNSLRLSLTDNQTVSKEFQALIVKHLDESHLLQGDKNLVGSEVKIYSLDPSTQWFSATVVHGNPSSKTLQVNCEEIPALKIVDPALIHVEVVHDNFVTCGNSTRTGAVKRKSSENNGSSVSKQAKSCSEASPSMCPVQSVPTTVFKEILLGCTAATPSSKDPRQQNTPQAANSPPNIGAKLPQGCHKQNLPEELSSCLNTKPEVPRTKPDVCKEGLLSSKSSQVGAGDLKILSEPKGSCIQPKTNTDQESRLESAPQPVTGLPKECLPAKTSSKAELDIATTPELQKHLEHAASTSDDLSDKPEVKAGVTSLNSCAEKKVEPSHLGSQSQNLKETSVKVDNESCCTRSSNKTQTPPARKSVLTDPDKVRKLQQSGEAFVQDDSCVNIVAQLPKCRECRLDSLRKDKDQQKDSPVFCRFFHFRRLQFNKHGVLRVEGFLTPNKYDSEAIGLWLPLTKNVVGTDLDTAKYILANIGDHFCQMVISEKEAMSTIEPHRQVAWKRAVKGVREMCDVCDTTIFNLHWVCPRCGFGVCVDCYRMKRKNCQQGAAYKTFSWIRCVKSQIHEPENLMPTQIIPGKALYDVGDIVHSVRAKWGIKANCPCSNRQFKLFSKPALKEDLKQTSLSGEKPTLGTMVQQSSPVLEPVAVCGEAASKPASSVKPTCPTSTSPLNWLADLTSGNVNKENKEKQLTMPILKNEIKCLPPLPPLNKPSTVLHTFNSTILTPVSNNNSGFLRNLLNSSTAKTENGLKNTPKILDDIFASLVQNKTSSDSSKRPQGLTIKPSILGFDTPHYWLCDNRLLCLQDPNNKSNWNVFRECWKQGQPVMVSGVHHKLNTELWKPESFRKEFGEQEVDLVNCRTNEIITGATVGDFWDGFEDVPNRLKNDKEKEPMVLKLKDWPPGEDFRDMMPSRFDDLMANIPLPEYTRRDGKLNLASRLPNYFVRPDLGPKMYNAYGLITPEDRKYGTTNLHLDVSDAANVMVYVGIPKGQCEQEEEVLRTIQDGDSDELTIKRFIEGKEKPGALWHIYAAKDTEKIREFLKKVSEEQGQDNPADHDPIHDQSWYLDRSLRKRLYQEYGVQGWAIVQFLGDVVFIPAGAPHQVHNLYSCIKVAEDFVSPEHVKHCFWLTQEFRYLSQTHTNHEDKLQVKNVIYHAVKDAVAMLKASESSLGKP
Assay: co-IP; whole cell lysates of NIH-3T3 cells after adipogenic induction with IBMX-containing differentiation cocktail; cell lysis buffer A (50 mM Tris-HCl pH 8.0, 0.1 mM EDTA, 5% glycerol, 100 mM KCl, 0.1% NP-40), 4 h at 4 °C; immunoblotting for P-JMJD1A and MYPT1

B1: myosin phosphatase target subunit 1 (MYPT1) (protein, UniProt Q9DBR7 1-1029)
chain: MKMADAKQKRNEQLKRWIGSETDLEPPVVKRQKTKVKFDDGAVFLAACSSGDTDEVLKLLHRGADINYANVDGLTALHQACIDDNVDMVKFLVENGANINQPDNEGWIPLHAAASCGYLDIAEFLIGQGAHVGAVNSEGDTPLDIAEEEAMEELLQNEVNRQGVDIEAARKEEERVMLRDARQWLNSGHISDVRHAKSGGTALHVAAAKGYTEVLKLLIQAGYDVNIKDYDGWTPLHAAAHWGKEEACRILVDNLCDMETVNKVGQTAFDVADEDILGYLEELQKKQTLLHSEKRDKKSPLIESTANMENNQPQKAFKNKETLIIEPEKNASRIESLEHEKADEEEEGKKDESSCSSEEDEEDDSESEAETDKTKPMASVSNAHTSSTQAAPAAVTAPTLSSNQGTPTSPVKKFPISTTKISPKEEERKDESPASWRLGLRKTGSYGALAEISASKEAQKEKDTAGVMRSASSPRLSSSLDNKEKEKDNKGTRLAYVTPTIPRRLASTSDIEEKENRESSSLRTSSSYTRRKWEDDLKKNSSINEGSTYHRSCSFGRRQDDLISCSVPSTTSTPTVTSAAGLQRSLPSSTSTAAKTPPGSSSAGTQSSTSNRLWAEDSTEKEKDSAPTAVTIPVAPTVVNAAAPSTTTLTTTTAGTVSEVRERRRSYLTPVRDEESESQRKARSRQARQSRRSTQGVTLTDLQEAEKTIGRSRSTRTREQENEEKEKEEKEKQDKEKQEEKKESEASREDEYKQKYSRTYDETYTRYRPVSTSSSSAPSSSSLSTLGSTLYASSQLNRPNSLVGITSAYSRGLAKENEREGEKKEEEKEGEDKSQPKSIRERRRPREKRRSTGVSFWTQDSDENEQERQSDTEDGSSKRETQTDSVSRYDSSSTSSSDRYDSLLGRSASYSYLEDRKPYSSRLEKDDSTDFKKLYEQILAENEKLKAQLHDTNMELTDLKLQLEKATQRQERFADRSQLEMEKRERRALERRISEMEEELKMLPDLKADNQRLKDENGALIRVISKLSK
binding: binds

From publication PMC9523048
